Data reported in patent US12252555B2 (CHINA NATIONAL RESEARCH INSTITUTE OF FOOD & FERMENTATION …, priority 2018, dated 2025).
For at least one compound, name, drawing or mass did not settle the structure.

Legend:
Format in all cases: biochemical
[1] = Determination of reducing capacity (K3[Fe(CN)6]/FeCl3, absorbance at 700 nm); details: FIG. 13
Experimental: (§1) [formula] 8.3 Determination of Reducing Capacity
Sample solutions in different concentrations are taken and evenly mixed with phosphate buffer (0.2 mol/L, pH 6.6) and K3[Fe(CN)6] solution with a mass concentration of 1% in a volume ratio of 1:1:1, stored in a water bath at 50° C. for 10 min, and quickly cooled with cold water. 1 volume of trichloroacetic acid solution with a mass concentration of 10% is added, shaken well quickly and thoroughly under a dark condition, and then 1 volume of reaction mixture is taken out, and added with 1 volume of distilled water and 0.2 volume of FeCl3 solution with a mass concentration of 0.1%, and after shaking well quickly and thoroughly under a dark condition, standing for 10 min, the absorbance is measured at 700 nm, and recorded as A3. The sodium selenite and the pea oligopeptide are used as raw material controls before chelation, and ascorbic acid is used as an overall control, the absorbance A3 is directly used as a parameter of the reducing capacity of the sample. Experiment of each group is repeated three times, and average values are obtained and standard deviations are calculated.

[2] = Determination of capacity to scavenge DPPH free radicals; details: independent of concentration; FIG. 9
Experimental: 8.1 Determination of Capacity to Scavenge DPPH Free Radicals
Samples in different concentrations are taken and mixed with DPPH-anhydrous ethanol solution ([…]) in a volume ratio of 1:1, and stored for 30 min under a dark condition, and the absorbance of the mixed solution is measured at 517 nm in ultraviolet-visible spectrum, and recorded as Ai. Correspondingly, sample solutions in different mass concentrations are evenly mixed with anhydrous ethanol solution in a volume ratio of 1:1, and stored for 30 min under a dark condition at room temperature, and the absorbance of the mixed solution is measured at 517 nm in ultraviolet-visible spectrum, and recorded as Aj. Distilled water is evenly mixed with DPPH-anhydrous ethanol solution ([…]) in a volume ratio of 1:1, and stored for 30 min under a dark condition at room temperature, and the absorbance is measured at 517 nm in ultraviolet-visible spectrum, and recorded as Ac. Experiment of each group is repeated three times, and average values are obtained and standard deviations are calculated. The sodium selenite and the pea oligopeptide are used as raw material controls before chelation, and ascorbic acid is used as a positive control, the scavenging rate of the sample on DPPH free radicals is calculated according to the following formula:
(§2) [formula] 8.2 Determination of Capacity to Scavenge OH Free Radicals

[3] = Determination of capacity to scavenge OH free radicals
Experimental: as §2
Sample solutions in different concentrations are taken and evenly mixed with FeSO4 ([…]) and salicylic acid-anhydrous ethanol solution ([…]) in a volume ratio of 1:2:2, the reaction is started with 1 volume of H2O2 solution ([…]), reacting in a water bath at 37° C. for 1 h, and the absorbance is measured at 510 nm in ultraviolet-visible spectrum, and recorded as A2. Correspondingly, the H2O2 solution ([…]) is replaced with 1 volume of water, and the ratio of remaining reagents remains unchanged, reacting in a water bath at 37° C. for 1 h, and the absorbance is measured at 510 nm in ultraviolet-visible spectrum, and recorded as A20. The sample solution is replaced with distilled water, and the ratio of remaining reagents remains unchanged, reacting in a water bath at 37° C. for 1 h, and the absorbance is measured at 510 nm, and recorded as A02. Experiment of each group is repeated three times, and average values are obtained and standard deviations are calculated. The sodium selenite and the pea oligopeptide are used as raw material controls before chelation, and ascorbic acid is used as a positive control, the scavenging rate of the sample on OH free radicals is calculated according to the following formula:
as §1

Compound: O=[Se](O)O [sodium selenite]
- Reducing capacity [1]: no reducing capacity
- Scavenging rate for DPPH free radical [2]: about 20%
- IC50 value of scavenging OH free radical ([3]; calculated from fitted curve, FIG. 11): 1230 ± 20 µg/mL
- Scavenging rate for OH free radical ([3]; concentration 5 mg/mL): 100%
